PMC12375561
These are yes or no findings as the source states them, for the method shown. Binding seen in cells or lysates may run through a third protein. Some entries that bind do so weakly or less than the wild type. Tags and fused reporters may be left off the sequences shown.

Sequences of proteins named here, by UniProt entry; tags and fusion partners are left off.
UniProt Q16665: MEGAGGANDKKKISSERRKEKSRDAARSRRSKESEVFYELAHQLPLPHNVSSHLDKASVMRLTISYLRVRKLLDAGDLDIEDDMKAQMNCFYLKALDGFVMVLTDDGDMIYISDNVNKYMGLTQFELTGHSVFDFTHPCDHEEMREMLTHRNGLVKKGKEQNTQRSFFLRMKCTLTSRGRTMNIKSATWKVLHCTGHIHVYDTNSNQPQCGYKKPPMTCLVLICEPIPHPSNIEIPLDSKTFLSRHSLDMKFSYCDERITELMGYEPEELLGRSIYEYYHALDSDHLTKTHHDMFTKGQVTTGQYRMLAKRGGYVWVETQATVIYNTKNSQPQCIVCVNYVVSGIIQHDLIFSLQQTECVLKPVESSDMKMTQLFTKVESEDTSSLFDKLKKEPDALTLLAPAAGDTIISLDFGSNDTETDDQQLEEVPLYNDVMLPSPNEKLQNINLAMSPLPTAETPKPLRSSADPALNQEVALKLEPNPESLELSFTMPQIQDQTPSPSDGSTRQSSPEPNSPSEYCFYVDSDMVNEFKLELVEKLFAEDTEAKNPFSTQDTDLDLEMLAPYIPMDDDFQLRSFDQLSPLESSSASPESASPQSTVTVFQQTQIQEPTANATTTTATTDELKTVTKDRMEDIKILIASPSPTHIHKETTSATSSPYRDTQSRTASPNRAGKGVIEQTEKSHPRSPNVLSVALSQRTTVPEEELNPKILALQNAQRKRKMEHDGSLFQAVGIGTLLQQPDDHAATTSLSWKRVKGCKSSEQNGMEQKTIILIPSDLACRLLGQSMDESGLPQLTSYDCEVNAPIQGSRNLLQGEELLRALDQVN

Molecular target: HIF-1α (HA-HIF-1α) (UniProt Q16665)
Assay: co-IP; A549 cells transfected with HA-HIF-1α and Flag-ZFP91 plasmids; lysate in immunoprecipitation buffer incubated with agarose beads and specific antibody at 4°C for 12 h; either Flag-ZFP91 or HA-HIF-1α precipitated; Western blot; with and without CuB (CuB attenuated the interaction)

B1: Zinc finger protein 91 (Flag-ZFP91) (protein, UniProt Q96JP5 1-570)
chain: MPGETEEPRPPEQQDQEGGEAAKAAPEEPQQRPPEAVAAAPAGTTSSRVLRGGRDRGRAAAAAAAAAVSRRRKAEYPRRRRSSPSARPPDVPGQQPQAAKSPSPVQGKKSPRLLCIEKVTTDKDPKEEKEEEDDSALPQEVSIAASRPSRGWRSSRTSVSRHRDTENTRSSRSKTGSLQLICKSEPNTDQLDYDVGEEHQSPGGISSEEEEEEEEEMLISEEEIPFKDDPRDETYKPHLERETPKPRRKSGKVKEEKEKKEIKVEVEVEVKEEENEIREDEEPPRKRGRRRKDDKSPRLPKRRKKPPIQYVRCEMEGCGTVLAHPRYLQHHIKYQHLLKKKYVCPHPSCGRLFRLQKQLLRHAKHHTDQRDYICEYCARAFKSSHNLAVHRMIHTGEKPLQCEICGFTCRQKASLNWHMKKHDADSFYQFSCNICGKKFEKKDSVVAHKAKSHPEVLIAEALAANAGALITSTDILGTNPESLTQPSDGQGLPLLPEPLGNSTSGECLLLEAEGMSKSYCSGTERVSLMADGKIFVGSGSSGGTEGLVMNSDILGATTEVLIEDSDSAGP
  binding: binds
